No constants are given. Whether binding was seen depends on the method and setting. A result given as binding can be weak or reduced; the word gives no strength.
Molecular target: T1, STRN3 coiled-coil domain (CC, amino acid residues 64–145) (human) (UniProt Q13033)
T1 sequence: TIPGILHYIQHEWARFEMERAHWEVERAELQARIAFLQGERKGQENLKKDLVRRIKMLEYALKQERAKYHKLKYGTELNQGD
Assay: pull-down; MBP pulldown: MBP-tagged protein, partner and amylose resin mixed at 4 °C for 1 h in 20 mM HEPES (pH 7.5), 100 mM NaCl; eluted with 20 mM maltose; SDS-PAGE, Coomassie staining; both purified

**Q.** For “regulatory A subunit of PP2A (PP2Aa) (human)”, which binding is on record?
**A.** binds
